From article PMC9612522

Sequences of proteins named here, by UniProt entry; tags and fusion partners are left off.
UniProt O96013: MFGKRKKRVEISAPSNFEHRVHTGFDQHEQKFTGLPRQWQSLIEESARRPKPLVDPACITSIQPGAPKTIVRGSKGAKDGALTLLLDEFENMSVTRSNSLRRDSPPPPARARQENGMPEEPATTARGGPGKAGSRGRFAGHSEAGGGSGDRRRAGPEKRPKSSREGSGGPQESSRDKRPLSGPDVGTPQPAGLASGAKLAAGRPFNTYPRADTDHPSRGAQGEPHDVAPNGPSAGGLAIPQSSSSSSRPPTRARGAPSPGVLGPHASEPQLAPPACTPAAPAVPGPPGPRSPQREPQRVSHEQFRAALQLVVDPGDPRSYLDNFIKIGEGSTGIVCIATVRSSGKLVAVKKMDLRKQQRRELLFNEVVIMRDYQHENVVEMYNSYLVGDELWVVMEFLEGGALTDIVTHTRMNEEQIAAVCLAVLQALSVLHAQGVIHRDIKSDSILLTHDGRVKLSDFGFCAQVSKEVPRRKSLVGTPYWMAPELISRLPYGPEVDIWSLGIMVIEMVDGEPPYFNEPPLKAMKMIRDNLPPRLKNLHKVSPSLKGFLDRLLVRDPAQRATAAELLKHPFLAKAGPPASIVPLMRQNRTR

Target: Flag-Pak4 (UniProt O96013)
Test: co-IP; HEK293T cells (the legend says HEK293) co-expressing Flag-Pak4 and EGFP fusions; IP with anti-GFP or anti-Flag, immunoblot with anti-GFP or anti-Flag; lysis in 50 mM Tris-HCl pH 7.5, 150 mM NaCl, 2 mM EDTA, 1% NP-40, 4°C

binding: no binding
Substance: EGFP-Inka2ΔiBox (from UniProt Q80VY2-2)

No constants are given. Whether binding was seen depends on the method and setting. Binding seen in cells or lysates may run through a third protein.
